Laboratory results: ChEMBL document CHEMBL2417431, “Synthesis and evaluation of hetero- and homodimers of ribosome-targeting antibiotics: antimicrobial activity, in vitro inhibition of translation, and drug resistance” (J Med Chem, 2013)

Tested on: Staphylococcus aureus
Experiment: Antibacterial activity against Staphylococcus aureus expressing NorA by double-dilution technique
Type: functional
Method in brief: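 Double-dilution series of each compound against each strain, reported as MIC. Runs done in duplicate or triplicate.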

CCC[C@@H]1C[C@@H](C(=O)N[C@@H]([C@H]2O[C@H](SC)[C@H](O)[C@@H](O)[C@H]2O)[C@H](C)Cl)N(C)C1 [CLINDAMYCIN]
MIC: < 0.3 µg/mL
